Measured values taken from patent US20260069705A1.
These are yes or no findings as the source states them, for the method shown. Binding seen in cells or lysates may run through a third protein. Some results given as binding are weak or reduced against the parent protein; the word gives no strength.

By UniProt entry, the sequences of proteins in these tests, tags left out. Residues count along the entry.
UniProt Q99523, residues 78-831: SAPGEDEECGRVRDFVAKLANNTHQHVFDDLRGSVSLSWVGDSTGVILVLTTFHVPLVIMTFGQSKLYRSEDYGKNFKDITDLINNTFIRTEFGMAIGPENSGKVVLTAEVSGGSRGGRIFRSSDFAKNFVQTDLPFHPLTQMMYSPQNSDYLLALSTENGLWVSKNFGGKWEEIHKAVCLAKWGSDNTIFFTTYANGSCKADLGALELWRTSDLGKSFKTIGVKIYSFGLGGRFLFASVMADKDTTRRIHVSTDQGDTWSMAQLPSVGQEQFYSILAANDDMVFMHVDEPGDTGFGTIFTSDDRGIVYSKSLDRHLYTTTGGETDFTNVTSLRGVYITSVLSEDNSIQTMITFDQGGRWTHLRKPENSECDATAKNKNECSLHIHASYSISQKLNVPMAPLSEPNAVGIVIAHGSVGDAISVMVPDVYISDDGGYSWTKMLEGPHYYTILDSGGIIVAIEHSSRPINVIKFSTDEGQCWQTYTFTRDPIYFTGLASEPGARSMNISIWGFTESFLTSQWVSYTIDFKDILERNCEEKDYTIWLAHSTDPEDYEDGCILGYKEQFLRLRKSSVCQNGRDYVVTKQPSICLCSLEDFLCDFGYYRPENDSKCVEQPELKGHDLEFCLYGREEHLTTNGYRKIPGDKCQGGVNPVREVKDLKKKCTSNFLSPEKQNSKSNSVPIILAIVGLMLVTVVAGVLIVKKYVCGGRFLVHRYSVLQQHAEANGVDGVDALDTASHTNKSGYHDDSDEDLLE

Biological target: sortilin (human), endogenous in human DCs (human) (UniProt Q99523)
Experiment: proximity ligation assay, monocyte-derived DCs as the reference

binding: binds
B1: prosaposin in human monocyte-derived DCs (MoDCs) (protein)
chain: GPVLGLKECTRGSAVWCQNVKTASDCGAVKHCLQTVWNKPTVKSLPCDICKDVVTAAGDMLKDNATEEEILVYLEKTCDWLPKPNMSASCKEIVDSYLPVILDIIKGEMSRPGEVCSALNLCESLQKHLAELNHQKQLESNKIPELDMTEVVAPFMANIPLLLYPQDGPRSKPQPKDNGDVCQDCIQMVTDIQTAVRTNSTFVQALVEHVKEECDRLGPGMADICKNYISQYSEIAIQMMMHMSLQQPKEICALVGFCDEVKEMPMQTLVPAKVASKNVIPALELVEPIKKHEVPAKSDVYCEVCEFLVKEVTKLIDNNKTEKEILDAFDKMCSKLPKSLSEECQEVVDTYGSSILSILLEEVSPELVCSMLHLCSGTRLPALTVHVTQPKDGGFCEVCKKLVGYLDRNLEKNSTKQEILAALEKGCSFLPDPYQKQCDQFVAEYEPVLIEILVEVMDPSFVCLKIGACPSAHKPLLGTEKCIWGPSYWCQNTETAAQCNAVEHCKRHVWN
